Reference: US9730979B2, “Methods for decreasing set in inhibiting protein phosphatase 2A (PP2A) and/or increasing the activity of cyclin-dependent kinase 5 (CDK5) by an APOE peptide” (COGNOSCI, INC., priority 2006, dated 2017)
These are yes or no findings as the source states them, for the method shown. Binding seen in cells or lysates may run through a third protein. Some entries that bind do so weakly or less than the wild type.

Chains of the proteins cited; added tags and fusions are not shown. Lines headed by an entry give the natural chain unless they say otherwise; changes in a name come on top. Residues count along the entry.
UniProt Q9EQU5: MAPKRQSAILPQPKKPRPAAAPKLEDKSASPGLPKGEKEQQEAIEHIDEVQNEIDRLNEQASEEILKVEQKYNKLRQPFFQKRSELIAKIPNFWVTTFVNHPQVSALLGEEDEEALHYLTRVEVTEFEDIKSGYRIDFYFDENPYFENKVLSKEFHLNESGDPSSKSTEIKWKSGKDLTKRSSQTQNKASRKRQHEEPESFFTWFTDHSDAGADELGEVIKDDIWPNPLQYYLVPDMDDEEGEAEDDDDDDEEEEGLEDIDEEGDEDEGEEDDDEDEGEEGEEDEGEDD
UniProt Q01105, residues 2-290: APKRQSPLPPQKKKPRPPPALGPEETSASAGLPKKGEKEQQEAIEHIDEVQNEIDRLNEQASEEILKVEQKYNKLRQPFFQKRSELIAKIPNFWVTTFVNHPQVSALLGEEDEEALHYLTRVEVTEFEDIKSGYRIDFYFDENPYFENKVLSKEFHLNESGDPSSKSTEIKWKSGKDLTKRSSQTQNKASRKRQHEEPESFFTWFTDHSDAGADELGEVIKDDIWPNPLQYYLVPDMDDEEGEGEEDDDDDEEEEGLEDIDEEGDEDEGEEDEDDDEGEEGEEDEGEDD

Key:
[1] = molecular target: SET variant (SEQ ID NO: 4) from BV2 microglial cells (mouse (BV2 microglial cells)) (UniProt Q9EQU5); test: streptavidin-agarose pull-down from BV2 cell extracts, anti-SET western blot
[2] = molecular target: SET variant (SEQ ID NO: 3) from BV2 microglial cells (mouse (BV2 microglial cells)); test: as above
[3] = molecular target: human brain SET protein (human) (UniProt Q01105); test: 100 ng biotinylated COG 133 in 1 mg human brain supernatant, streptavidin agarose pull-down, anti-SET western blot
[4] = molecular target: SET variant (SEQ ID NO: 4) from BV2 microglial cells (mouse (BV2 microglial cells)) (UniProt Q9EQU5); test: streptavidin bead pull-down from BV2 total protein, SDS-PAGE, bands identified by MS/MS
[5] = molecular target: SET variant (SEQ ID NO: 3) from BV2 microglial cells (mouse (BV2 microglial cells)); test: as above
[6] = molecular target: human brain SET protein (human) (UniProt Q01105); test: streptavidin agarose pull-down from human brain extract, anti-SET western blot

Measured: binding

LRVRLASHLRKLRKRLL (biotin attached to the N-terminus) [biotinylated COG 133 (COG 133 peptide with biotin attached to the N-terminus)]
binds: [1] | [2] | [3] | [4] | [5] | [6]
